# The supplement of paper PMC12823440, “Inhibitors supercharge kinase turnover through native proteolytic circuits” (Nature, 2025)
# The chains behind the UniProt entries cited, without tags or fusion partners. Where a name states a change or a piece, a line headed by the entry shows the natural chain unless it says otherwise.
# UniProt Q13555: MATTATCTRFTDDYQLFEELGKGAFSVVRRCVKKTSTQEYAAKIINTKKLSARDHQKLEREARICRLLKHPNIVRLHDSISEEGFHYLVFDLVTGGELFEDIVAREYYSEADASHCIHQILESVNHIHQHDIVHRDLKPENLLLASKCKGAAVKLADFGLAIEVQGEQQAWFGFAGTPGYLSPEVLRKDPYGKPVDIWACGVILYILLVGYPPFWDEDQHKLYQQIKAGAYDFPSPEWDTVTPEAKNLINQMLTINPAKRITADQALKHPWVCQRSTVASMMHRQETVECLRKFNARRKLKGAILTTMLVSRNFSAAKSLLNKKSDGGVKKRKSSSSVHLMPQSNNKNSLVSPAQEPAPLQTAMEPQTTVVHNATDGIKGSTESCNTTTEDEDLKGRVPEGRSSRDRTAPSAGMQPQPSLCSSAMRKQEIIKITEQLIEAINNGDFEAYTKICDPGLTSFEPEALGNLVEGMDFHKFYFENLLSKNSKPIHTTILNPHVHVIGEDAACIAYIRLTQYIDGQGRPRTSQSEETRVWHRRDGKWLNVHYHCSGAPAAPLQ
# UniProt Q15131: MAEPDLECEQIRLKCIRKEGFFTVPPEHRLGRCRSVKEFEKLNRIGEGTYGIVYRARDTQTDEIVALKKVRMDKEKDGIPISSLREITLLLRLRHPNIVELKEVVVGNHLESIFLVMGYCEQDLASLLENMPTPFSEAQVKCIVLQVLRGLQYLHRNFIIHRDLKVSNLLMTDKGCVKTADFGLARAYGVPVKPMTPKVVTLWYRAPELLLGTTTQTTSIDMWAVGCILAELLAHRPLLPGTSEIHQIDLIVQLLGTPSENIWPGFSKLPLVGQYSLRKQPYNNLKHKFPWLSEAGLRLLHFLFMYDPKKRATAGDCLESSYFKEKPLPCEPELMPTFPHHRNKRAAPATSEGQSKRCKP
# Counter-ions that a name gives are not always drawn. The list shows a part of the results. The calls rarely recur for the same compound in another form.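 Kinases were expressed as nanoluciferase fusions in K562 cells and luminescence was read every 4 h between 2 and 18 h as percent of control, DMSO set to 100% and a positive control to 0%. A time point counts as decreased when the signal drops significantly (2 sigma). The hit call is the authors' own, does not follow from the count of time points alone, and its rule is not shown.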
# Biological target: CAMK2G (UniProt Q13555)
# Experiment: number of time points (of 5) at which kinase-Nluc abundance scored as decreased, DMSO-normalised (count); higher = more persistent destabilization
# Conditions: K562; 2-18 h
row,SMILES,number of time points
1,COc1cc2nccc(Oc3ccc(NC(=O)NC4CC4)c(Cl)c3)c2cc1C(N)=O [Lenvatinib (mesylate)] (10 µM),0
2,Oc1ccc(Nc2nc(-c3ccc(Cl)cc3)cs2)cc1 (10 µM),0
3,NC(=O)c1nc(Nc2ccccc2)sc1NC(=O)C1CCCCC1 (10 µM),0
4,CC1=C(C(=O)O)N2C(=O)[C@@H](NC(=O)[C@H](N)C3=CCC=CC3)[C@H]2SC1 [Cephradine] (10 µM),0
5,Cc1ccc(C(=O)Nc2ccc(Oc3cc4cnn(C)c4cc3-c3cn[nH]c3)c(F)c2)c(=O)n1-c1ccc(F)cc1 [Merestinib dihydrochloride] (2.5 µM),0
6,Cc1ccc2nc(NCCN)c3ncc(C)n3c2c1 (2.5 µM),0
7,CC(=O)NC1CC(n2cnc(NC(=O)Cc3ccc4ccccc4c3)c2)C1 (stereo unspecified) (10 µM),0
8,COc1cc2nccc(Oc3ccc(NC(=O)NC4CC4)c(Cl)c3)c2cc1C(N)=O [Lenvatinib] (10 µM),0
9,Cn1cnc2c(F)c(Nc3ccc(Br)cc3Cl)c(C(=O)NOCCO)cc21 [Selumetinib (sulfate)] (10 µM),0
10,CCN1CCN(Cc2ccc(Nc3ncc(F)c(-c4cc(F)c5nc(C)n(C(C)C)c5c4)n3)nc2)CC1 [Abemaciclib] (2 µM),0
11,C[C@@H]1CCN(C(=O)CC#N)C[C@@H]1N(C)c1ncnc2[nH]ccc12 [Tofacitinib (citrate)] (10 µM),0
12,Cn1nccc1Nc1nccc(-c2ccn([C@H](CO)c3ccc(Cl)c(F)c3)c(=O)c2)n1 [Ravoxertinib] (10 µM),0
13,COc1cc(Nc2ncc(F)c(Nc3ccc4c(n3)NC(=O)C(C)(C)O4)n2)cc(OC)c1OC [R406 (free base)] (10 µM),0
14,S=C(SSC(=S)N1CCOCC1)N1CCOCC1 (10 µM),0
15,CC1CCc2c(cc(Br)c(F)c2Br)N1C=O (stereo unspecified) (10 µM),0
16,Cc1[nH]c(/C=C2\C(=O)Nc3ccccc32)c(C)c1CCC(=O)O [(Z)-Orantinib] (10 µM),0
17,CCN1CCN(Cc2ccc(Nc3ncc(F)c(-c4cc(F)c5nc(C)n(C(C)C)c5c4)n3)nc2)CC1 [Abemaciclib (methanesulfonate)] (10 µM),0
18,Cn1cnc2c(F)c(Nc3ccc(Br)cc3Cl)c(C(=O)NOCCO)cc21 [Selumetinib] (10 µM),0
19,CCc1cc2c(cc1N1CCC(N3CCOCC3)CC1)C(C)(C)c1[nH]c3cc(C#N)ccc3c1C2=O [Alectinib] (10 µM),0
20,C=C(CC[C@@H](C(=O)O)[C@H]1[C@H](O)C[C@@]2(C)C3=C(CC[C@]12C)[C@@]1(C)CC[C@H](OC(C)=O)C(C)(C)[C@@H]1CC3)C(C)C [Pachymic acid] (10 µM),0
21,Cc1[nH]c(/C=C2\C(=O)Nc3ccccc32)c(C)c1CCC(=O)O [Orantinib] (10 µM),0
22,C=CC(=O)Nc1ccc(CN2C(=O)N(c3cc(OC)cc(OC)c3)Cc3cnc(Nc4ccc(N5CCN(C)CC5)cc4)nc32)cc1 (2.5 µM),0

# Biological target: CDK10 (UniProt Q15131)
# Experiment: as above
# Conditions: K562; 2-18 h
row,SMILES,number of time points
1,C[C@@H]1CCN(C(=O)CC#N)C[C@@H]1N(C)c1ncnc2[nH]ccc12 [Tofacitinib] (10 µM),0
2,CC#CC(=O)N1CC[C@@H](n2c(=O)n(-c3ccc(Oc4ccccc4)cc3)c3c(N)ncnc32)C1 [Tirabrutinib (hydrochloride)] (10 µM),0
3,Cc1ccc(C(=O)Nc2ccc(Oc3cc4cnn(C)c4cc3-c3cn[nH]c3)c(F)c2)c(=O)n1-c1ccc(F)cc1 [Merestinib] (2.5 µM),0
4,Cc1cc(Nc2ncnc3ccc(NC4=NC(C)(C)CO4)cc23)ccc1Oc1ccn2ncnc2c1 [Tucatinib (hemiethanolate)] (2.5 µM),0
5,C[C@@]1(c2ncncc2F)NC(=O)c2cc(-c3cn[nH]c3)ccc21 (10 µM),0
6,COc1cc(Nc2ncc(F)c(Nc3ccc4c(n3)NC(=O)C(C)(C)O4)n2)cc(OC)c1OC (10 µM),0
7,Cc1cc2ncc(-c3ccc(O)c(O)c3)nc2cc1C [Tyrphostin AG1433] (10 µM),0
8,C=CC(=O)Nc1cccc(Nc2nc(Nc3ccc(N4CCN(C(C)=O)CC4)cc3OC)ncc2C(F)(F)F)c1 [Rociletinib hydrobromide] (10 µM),0
9,Cc1cc(Nc2ncnc3ccc(NC4=NC(C)(C)CO4)cc23)ccc1Oc1ccn2ncnc2c1 [Tucatinib] (2.5 µM),0
10,CCc1cc2c(cc1N1CCC(N3CCOCC3)CC1)C(C)(C)c1[nH]c3cc(C#N)ccc3c1C2=O [Alectinib (Hydrochloride)] (2 µM),0
11,Cn1nccc1Nc1nccc(-c2ccn([C@H](CO)c3ccc(Cl)c(F)c3)c(=O)c2)n1 [Ravoxertinib hydrochloride] (10 µM),0
12,COc1cc2c(N3CCN(C(=O)Nc4ccc(OC(C)C)cc4)CC3)ncnc2cc1OCCCN1CCCCC1 [Tandutinib] (10 µM),0
13,CC#CC(=O)N1CC[C@@H](n2c(=O)n(-c3ccc(Oc4ccccc4)cc3)c3c(N)ncnc32)C1 [Tirabrutinib] (10 µM),0
14,C=CC(=O)Nc1cccc(Nc2nc(Nc3ccc(N4CCN(C(C)=O)CC4)cc3OC)ncc2C(F)(F)F)c1 [Rociletinib] (10 µM),0
15,COc1cc(Nc2ncc(F)c(Nc3ccc4c(n3)N(COP(=O)(O)O)C(=O)C(C)(C)O4)n2)cc(OC)c1OC [Fostamatinib Disodium] (10 µM),0
16,COc1cc2c(N3CCN(C(=O)Nc4ccc(OC(C)C)cc4)CC3)ncnc2cc1OCCCN1CCCCC1 [Tandutinib (hydrochloride)] (10 µM),0
17,COc1cc(Nc2ncc(F)c(Nc3ccc4c(n3)N(COP(=O)(O)O)C(=O)C(C)(C)O4)n2)cc(OC)c1OC [Fostamatinib (disodium hexahydrate)] (10 µM),0
18,COc1cc2nccc(Oc3ccc(NC(=O)NC4CC4)c(Cl)c3)c2cc1C(N)=O [Lenvatinib (mesylate)] (10 µM),0
19,Oc1ccc(Nc2nc(-c3ccc(Cl)cc3)cs2)cc1 (10 µM),0
20,NC(=O)c1nc(Nc2ccccc2)sc1NC(=O)C1CCCCC1 (10 µM),0

row,SMILES,number of time points
1,CC1=C(C(=O)O)N2C(=O)[C@@H](NC(=O)[C@H](N)C3=CCC=CC3)[C@H]2SC1 [Cephradine] (10 µM),0
2,Cc1ccc(C(=O)Nc2ccc(Oc3cc4cnn(C)c4cc3-c3cn[nH]c3)c(F)c2)c(=O)n1-c1ccc(F)cc1 [Merestinib dihydrochloride] (2.5 µM),0
3,Cc1ccc2nc(NCCN)c3ncc(C)n3c2c1 (2.5 µM),0
4,CC(=O)NC1CC(n2cnc(NC(=O)Cc3ccc4ccccc4c3)c2)C1 (stereo unspecified) (10 µM),0
5,COc1cc2nccc(Oc3ccc(NC(=O)NC4CC4)c(Cl)c3)c2cc1C(N)=O [Lenvatinib] (10 µM),0
6,Cn1cnc2c(F)c(Nc3ccc(Br)cc3Cl)c(C(=O)NOCCO)cc21 [Selumetinib (sulfate)] (10 µM),0
7,CCN1CCN(Cc2ccc(Nc3ncc(F)c(-c4cc(F)c5nc(C)n(C(C)C)c5c4)n3)nc2)CC1 [Abemaciclib] (2 µM),0
8,C[C@@H]1CCN(C(=O)CC#N)C[C@@H]1N(C)c1ncnc2[nH]ccc12 [Tofacitinib (citrate)] (10 µM),0
9,Cn1nccc1Nc1nccc(-c2ccn([C@H](CO)c3ccc(Cl)c(F)c3)c(=O)c2)n1 [Ravoxertinib] (10 µM),0
10,COc1cc(Nc2ncc(F)c(Nc3ccc4c(n3)NC(=O)C(C)(C)O4)n2)cc(OC)c1OC [R406 (free base)] (10 µM),0
11,S=C(SSC(=S)N1CCOCC1)N1CCOCC1 (10 µM),0
12,CC1CCc2c(cc(Br)c(F)c2Br)N1C=O (stereo unspecified) (10 µM),0
13,Cc1[nH]c(/C=C2\C(=O)Nc3ccccc32)c(C)c1CCC(=O)O [(Z)-Orantinib] (10 µM),0
14,CCN1CCN(Cc2ccc(Nc3ncc(F)c(-c4cc(F)c5nc(C)n(C(C)C)c5c4)n3)nc2)CC1 [Abemaciclib (methanesulfonate)] (10 µM),0
15,Cn1cnc2c(F)c(Nc3ccc(Br)cc3Cl)c(C(=O)NOCCO)cc21 [Selumetinib] (10 µM),0
16,CCc1cc2c(cc1N1CCC(N3CCOCC3)CC1)C(C)(C)c1[nH]c3cc(C#N)ccc3c1C2=O [Alectinib] (10 µM),0
17,C=C(CC[C@@H](C(=O)O)[C@H]1[C@H](O)C[C@@]2(C)C3=C(CC[C@]12C)[C@@]1(C)CC[C@H](OC(C)=O)C(C)(C)[C@@H]1CC3)C(C)C [Pachymic acid] (10 µM),0
18,Cc1[nH]c(/C=C2\C(=O)Nc3ccccc32)c(C)c1CCC(=O)O [Orantinib] (10 µM),0
19,C=CC(=O)Nc1ccc(CN2C(=O)N(c3cc(OC)cc(OC)c3)Cc3cnc(Nc4ccc(N5CCN(C)CC5)cc4)nc32)cc1 (2.5 µM),0
